# Test results reported in the supplement of paper PMC8728848.
# The list shows a part of the results.
# B1: PX14375A-pdi-503-28-503 (Parabacteroides distasonis) (protein)
# chain: PLGSPEAGDISEERQAFLRLTAVYSVMKDFRYTWSMQCFGDVLSNDATYSGSSNDAQTFTLLENYQYQADHTEILNKYRYSYQCINKANLFIRDMEMADDALFSKYDKEQMIGEAKFIRAYTYFELVKTFGGVPCYTGVLDLDHERLGRASVEEIYSVIEQDLNDAVSVLPKKSEVANYESSYAGRITKGAAIAMQTRIYLYEKKYDEVKKAFEKFQNECGGEYSLVAPEDYTWQFSLDGEHCSSSILEVNMYNSSTQSSYNVNNGNRHVLMSMPRNMTIGFGCAQPTQALADAYDAEGDVIRKKTTLLSTEEAIEIETAAKGDVAPVTDDRTGWYNRKLYLAPGQREENRGNNQPTNLRLIRLAEVYLNYAEACYFSGDIANAQKYLNEVRSHVNLAPKNHTGSQLFEDIMNERHLEFGMEGFRFFDVVRVGWGEKVFNGTKKAEFGAKTPFSAGAEVLPIPQTEIDISDGLITN
# Key:
# Assay in all cases: glycan array binding signal (z-score within array); higher = stronger binding
# Conditions in all cases: glycan notation: IUPAC condensed, linker removed
# [1] = target: GlcNAc(b1-3)Gal(b1-4)GlcNAc(b1-3)Gal(b1-4)GlcNAc(b1-3)GalNAc
# How it was run: (§1)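 The binding signal is a Z-score computed within each array and averaged over linkers. Arrays of the same protein sequence at different concentrations or buffers were also averaged together. Data originate from 3228 arrays in the Consortium for Functional Glycomics database, kept only where the protein sequence was available.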
# [2] = target: GlcNAc(b1-3)Gal(b1-4)GlcNAc(b1-3)GalNAc
# How it was run: as §1
# [3] = target: GlcNAc(b1-3)Gal(b1-4)GlcNAc(b1-3)[GlcNAc(b1-3)Gal(b1-4)GlcNAc(b1-3)]GalNAc
# How it was run: as §1
# [4] = target: GlcNAc(b1-3)Gal(b1-4)GlcNAc(b1-6)[Gal(b1-3)]GalNAc
# How it was run: as §1
# [5] = target: GlcNAc(b1-3)Gal(b1-4)GlcNAc(b1-6)[GlcNAc(b1-3)Gal(b1-3)]GalNAc
# How it was run: as §1
# [6] = target: GlcNAc(b1-3)Gal(b1-4)GlcNAc(b1-6)[GlcNAc(b1-3)]Gal(b1-4)GlcNAc
# How it was run: as §1
# GlcNAc(b1-3)GalNAc = target: GlcNAc(b1-3)GalNAc
# How it was run: as §1
# GlcNAc(b1-3)Man = target: GlcNAc(b1-3)Man
# How it was run: as §1
# [7] = target: GlcNAc(b1-3)[GlcNAc(b1-4)][GlcNAc(b1-6)]GlcNAc
# How it was run: as §1
# [8] = target: GlcNAc(b1-3)[GlcNAc(b1-6)]Gal(b1-4)GlcNAc
# How it was run: as §1
# [9] = target: GlcNAc(b1-3)[GlcNAc(b1-6)]GalNAc
# How it was run: as §1
# [10] = target: GlcNAc(b1-4)Gal(b1-4)GlcNAc
# How it was run: as §1
# GlcNAc(b1-4)GlcNAc = target: GlcNAc(b1-4)GlcNAc
# How it was run: as §1
# [11] = target: GlcNAc(b1-4)GlcNAc(b1-4)GlcNAc
# How it was run: as §1
# [12] = target: GlcNAc(b1-4)GlcNAc(b1-4)GlcNAc(b1-4)GlcNAc(b1-4)GlcNAc
# How it was run: as §1
# [13] = target: GlcNAc(b1-4)GlcNAc(b1-4)GlcNAc(b1-4)GlcNAc(b1-4)GlcNAc(b1-4)GlcNAc
# How it was run: as §1
# [14] = target: GlcNAc(b1-4)[GlcNAc(b1-6)]GalNAc
# How it was run: as §1
# [15] = target: GlcNAc(b1-6)Gal(b1-4)GlcNAc
# How it was run: as §1
# GlcNAc(b1-6)GalNAc = target: GlcNAc(b1-6)GalNAc
# How it was run: as §1
# [16] = target: GlcNAc6S(b1-3)Gal(b1-4)GlcNAc
# How it was run: as §1
# Kdn(a2-3)Gal(b1-3)GalNAc = target: Kdn(a2-3)Gal(b1-3)GalNAc
# How it was run: as §1
# Kdn(a2-3)Gal(b1-3)GlcNAc = target: Kdn(a2-3)Gal(b1-3)GlcNAc
# How it was run: as §1
# Kdn(a2-3)Gal(b1-4)Glc = target: Kdn(a2-3)Gal(b1-4)Glc
# How it was run: as §1
# Kdn(a2-3)Gal(b1-4)GlcNAc = target: Kdn(a2-3)Gal(b1-4)GlcNAc
# How it was run: as §1
# [17] = target: Kdn(a2-3)Gal(b1-4)[Fuc(a1-3)]GlcNAc
# How it was run: as §1
# Kdn(a2-6)Gal(b1-4)GlcNAc = target: Kdn(a2-6)Gal(b1-4)GlcNAc
# How it was run: as §1
# [18] = target: Man(a1-2)Man(a1-2)Man(a1-3)Man
# How it was run: as §1
# [19] = target: Man(a1-2)Man(a1-2)Man(a1-6)[Man(a1-3)]Man
# How it was run: as §1
# Man(a1-2)Man(a1-3)Man = target: Man(a1-2)Man(a1-3)Man
# How it was run: as §1
# [20] = target: Man(a1-2)Man(a1-3)[Man(a1-2)Man(a1-6)]Man
# How it was run: as §1
# [21] = target: Man(a1-2)Man(a1-3)[Man(a1-2)Man(a1-6)]Man(a1-6)[Man(a1-2)Man(a1-2)Man(a1-3)]Man
# How it was run: as §1
# [22] = target: Man(a1-2)Man(a1-3)[Man(a1-2)Man(a1-6)]Man(a1-6)[Man(a1-2)Man(a1-2)Man(a1-3)]Man(b1-4)GlcNAc(b1-4)GlcNAc
# How it was run: as §1
# [23] = target: Man(a1-2)Man(a1-3)[Man(a1-6)]Man(a1-6)[Man(a1-2)Man(a1-3)]Man(b1-4)GlcNAc(b1-4)GlcNAc
# How it was run: as §1
# [24] = target: Man(a1-2)Man(a1-6)[Man(a1-3)]Man(a1-6)[Man(a1-2)Man(a1-2)Man(a1-3)]Man
# How it was run: as §1
# [25] = target: Man(a1-2)Man(a1-6)[Man(a1-3)]Man(a1-6)[Man(a1-2)Man(a1-2)Man(a1-3)]Man(b1-4)GlcNAc(b1-4)GlcNAc
# How it was run: as §1
# Man(a1-3)[Man(a1-6)]Man = target: Man(a1-3)[Man(a1-6)]Man
# How it was run: as §1
# [26] = target: Man(a1-3)[Man(a1-6)]Man(a1-6)[Man(a1-2)Man(a1-3)]Man(b1-4)GlcNAc(b1-4)GlcNAc
# How it was run: as §1
# [27] = target: Man(a1-3)[Man(a1-6)]Man(a1-6)[Man(a1-3)]Man
# How it was run: as §1
# [28] = target: Man(a1-3)[Man(a1-6)]Man(a1-6)[Man(a1-3)]Man(b1-4)GlcNAc(b1-4)GlcNAc
# How it was run: as §1
# [29] = target: Man(a1-3)[Man(a1-6)]Man(b1-4)GlcNAc(b1-4)GlcNAc
# How it was run: as §1
# [30] = target: Man(a1-3)[Man(a1-6)]Man(b1-4)GlcNAc(b1-4)[Fuc(a1-6)]GlcNAc
# How it was run: as §1
# Man(a1-6)Man = target: Man(a1-6)Man
# How it was run: as §1
# Man(b1-4)GlcNAc = target: Man(b1-4)GlcNAc
# How it was run: as §1
# MurNAc(b1-4)GlcNAc = target: MurNAc(b1-4)GlcNAc
# How it was run: as §1
# Neu5Ac(a2-3)Gal = target: Neu5Ac(a2-3)Gal
# How it was run: as §1
binder,measurement,setting,value
B1,glycan array binding signal (z-score),[1],0.216
same,glycan array binding signal (z-score),[2],-0.686
same,glycan array binding signal (z-score),[3],-0.312
same,glycan array binding signal (z-score),[4],-0.135
same,glycan array binding signal (z-score),[5],-0.061
same,glycan array binding signal (z-score),[6],0.13
same,glycan array binding signal (z-score),GlcNAc(b1-3)GalNAc,-0.217
same,glycan array binding signal (z-score),GlcNAc(b1-3)Man,0.149
same,glycan array binding signal (z-score),[7],0.364
same,glycan array binding signal (z-score),[8],-0.494
same,glycan array binding signal (z-score),[9],-0.103
same,glycan array binding signal (z-score),[10],0.229
same,glycan array binding signal (z-score),GlcNAc(b1-4)GlcNAc,0.584
same,glycan array binding signal (z-score),[11],-0.657
same,glycan array binding signal (z-score),[12],0.058
same,glycan array binding signal (z-score),[13],-0.487
same,glycan array binding signal (z-score),[14],2.82
same,glycan array binding signal (z-score),[15],0.4
same,glycan array binding signal (z-score),GlcNAc(b1-6)GalNAc,0.786
same,glycan array binding signal (z-score),[16],0.113
same,glycan array binding signal (z-score),Kdn(a2-3)Gal(b1-3)GalNAc,0.322
same,glycan array binding signal (z-score),Kdn(a2-3)Gal(b1-3)GlcNAc,-0.519
same,glycan array binding signal (z-score),Kdn(a2-3)Gal(b1-4)Glc,-0.245
same,glycan array binding signal (z-score),Kdn(a2-3)Gal(b1-4)GlcNAc,-0.314
same,glycan array binding signal (z-score),[17],0.745
same,glycan array binding signal (z-score),Kdn(a2-6)Gal(b1-4)GlcNAc,0.091
same,glycan array binding signal (z-score),[18],-0.487
same,glycan array binding signal (z-score),[19],0.511
same,glycan array binding signal (z-score),Man(a1-2)Man(a1-3)Man,-0.314
same,glycan array binding signal (z-score),[20],-0.754
same,glycan array binding signal (z-score),[21],1.42
same,glycan array binding signal (z-score),[22],-0.524
same,glycan array binding signal (z-score),[23],-0.13
same,glycan array binding signal (z-score),[24],-0.437
same,glycan array binding signal (z-score),[25],-0.976
same,glycan array binding signal (z-score),Man(a1-3)[Man(a1-6)]Man,-0.311
same,glycan array binding signal (z-score),[26],-0.406
same,glycan array binding signal (z-score),[27],0.539
same,glycan array binding signal (z-score),[28],-0.124
same,glycan array binding signal (z-score),[29],-0.325
same,glycan array binding signal (z-score),[30],-0.428
same,glycan array binding signal (z-score),Man(a1-6)Man,0.326
same,glycan array binding signal (z-score),Man(b1-4)GlcNAc,0.292
same,glycan array binding signal (z-score),MurNAc(b1-4)GlcNAc,1.31
same,glycan array binding signal (z-score),Neu5Ac(a2-3)Gal,-0.52

# Quoted at random: four entries already listed
binder,measurement,setting,value
B1,glycan array binding signal (z-score),[15],0.4
same,glycan array binding signal (z-score),Kdn(a2-3)Gal(b1-4)Glc,-0.245
same,glycan array binding signal (z-score),[20],-0.754
same,glycan array binding signal (z-score),Man(a1-3)[Man(a1-6)]Man,-0.311
